PubChem BioAssay AID720505 | Drosophila RNAi Screening Center | 2013
The screen tested about 20,000 reagents; below is an unselected part of those with a known target gene and a result. In the full data, about 2,100 (10%) got an active call. 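Raw plate signals without normalisation; calls rest on control-based scores that were not deposited; replicate 2 separates called from uncalled poorly.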 Unmarked entries are inactive. No sequences are given here. Not given: the amount of reagent, the time to read-out.

Test: 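Knock-downs that reduce calcium influx once internal stores are emptied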 (primary screen)
System: Drosophila S2R+ cells
Knock-down reagent: long dsRNA against Drosophila genes
Conditions: thapsigargin (2 µM) in calcium-free buffer to empty internal stores, then 2 mM calcium added back
Measured: 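Fluo-4 signal in 384-well plates read on a FLIPR after thapsigargin (2 µM, calcium-free) store depletion and 2 mM calcium add-back; unnormalised mean endpoint per well; screen run twice, selected wells retested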
Reading the numbers: calcium signal and retest calcium signal: higher = more calcium entry after store depletion
Rule for the call: 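About 1500 genes called as lowering calcium entry, by varying amounts, judged against per-plate control wells with STIM1 as positive and Rho1 as negative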
Calls: active = called as lowering calcium entry; inactive = not called

| predicted target | dsRNA | calcium signal, replicate 1 | calcium signal, replicate 2 | retest calcium signal, replicate 1 | retest calcium signal, replicate 2 |
| --- | --- | --- | --- | --- | --- |
| ClC-b (GeneID 36381) | DRSC07220 | 132 | 224 | – | – |
| Or83c (GeneID 40744) | DRSC12359 | 86.8 | 150 | – | – |
| RpS8 (GeneID 43532) | DRSC16318 | 106 (active) | 123 | – | – |
| CG3841 (GeneID 34278) | DRSC02730 | 160 | 168 | – | – |
| Mtr4 (GeneID 48782) | DRSC03560 | 66.6 (active) | 94.1 | – | – |
| RpL34b (GeneID 41120) | DRSC16475 | 106 | 93.2 | – | – |
| Atac2 (GeneID 35113) | DRSC02053 | 104 | 87.9 | – | – |
| CG6470 (GeneID 32840) | DRSC19994 | 154 | 135 | – | – |
| CG31415 (GeneID 318722) | DRSC22409 | 78 | 125 | – | – |
| Rab6 (GeneID 34636) | DRSC03404 | 112 | 100 | – | – |
| CG14238 (GeneID 43195) | DRSC14732 | 107 | 85.2 | – | – |
| su(Hw) (GeneID 41740) | DRSC17074 | 109 | 94.6 | – | – |
| Sin1 (GeneID 36604) | DRSC05965 | 148 | 130 | – | – |
| hoip (GeneID 44173) | DRSC03546 | 77.6 (active) | 84.9 | – | – |
| CG31058 (retired record) (GeneID 43320) | DRSC15840 | 153 | 158 | – | – |
| CG31058 (retired record) (GeneID 43320) | DRSC22987 | 87.6 | 126 | – | – |
| Chd3 (GeneID 40111) | DRSC11114 | 106 | 124 | – | – |
| Dysb (GeneID 40052) | DRSC10730 | 110 | 126 | – | – |
| Dronc (GeneID 39173) | DRSC11231 | 83.9 | 73.4 | – | – |
| CG9636 (GeneID 40967) | DRSC16529 | 106 | 85.8 | – | – |
| CG18304 (GeneID 33969) | DRSC02664 | 171 | 83.7 | – | – |
| CG14760 (GeneID 35802) | DRSC06495 | 155 | 150 | – | – |
| CG9391 (GeneID 40346) | DRSC11858 | 84.8 | 163 | – | – |
| Yod1 (GeneID 38603) | DRSC10433 | 103 | 113 | – | – |
| scyl (GeneID 39270) | DRSC11392 | 90 | 112 | – | – |
| Fmr1 (GeneID 37528) | DRSC16674 | 83.8 | 78.4 | – | – |
| fid (GeneID 43148) | DRSC14885 | 261 | 196 | – | – |
| fid (GeneID 43148) | DRSC16464 | 175 | 124 | – | – |
| CG11597 (GeneID 39337) | DRSC09847 | 91.7 | 116 | – | – |
| zpg (GeneID 251414) | DRSC09702 | 92.7 | 67.4 | – | – |
| Spt20 (GeneID 39522) | DRSC10280 | 66.8 (active) | 63 | – | – |
| Spt20 (GeneID 39522) | DRSC22993 | 120 | 104 | – | – |
| CG3744 (GeneID 42972) | DRSC15511 | 115 | 105 | – | – |
| btz (GeneID 43331) | DRSC14566 | 128 | 158 | – | – |
| CG5890 (GeneID 43126) | DRSC15909 | 226 | 197 | – | – |
| LSm3 (GeneID 42842) | DRSC15920 | 283 | 148 | – | – |
| Prosalpha6 (GeneID 34359) | DRSC03401 | 117 (active) | 96.8 | – | – |
| CG5509 (GeneID 41539) | DRSC15822 | 171 | 91.5 | – | – |
| Non3 (GeneID 42183) | DRSC16359 | 142 | 223 | – | – |
| CG11438 (GeneID 40469) | DRSC11660 | 93.7 | 130 | – | – |

A stretch taken from the entries so far:
| predicted target | dsRNA | calcium signal, replicate 1 | calcium signal, replicate 2 | retest calcium signal, replicate 1 | retest calcium signal, replicate 2 |
| --- | --- | --- | --- | --- | --- |
| RpL34b (GeneID 41120) | DRSC16475 | 106 | 93.2 | – | – |
| Atac2 (GeneID 35113) | DRSC02053 | 104 | 87.9 | – | – |
| CG6470 (GeneID 32840) | DRSC19994 | 154 | 135 | – | – |
| CG31415 (GeneID 318722) | DRSC22409 | 78 | 125 | – | – |
| Rab6 (GeneID 34636) | DRSC03404 | 112 | 100 | – | – |
| CG14238 (GeneID 43195) | DRSC14732 | 107 | 85.2 | – | – |
| su(Hw) (GeneID 41740) | DRSC17074 | 109 | 94.6 | – | – |
| Sin1 (GeneID 36604) | DRSC05965 | 148 | 130 | – | – |
| hoip (GeneID 44173) | DRSC03546 | 77.6 (active) | 84.9 | – | – |

The list goes on.
| predicted target | dsRNA | calcium signal, replicate 1 | calcium signal, replicate 2 | retest calcium signal, replicate 1 | retest calcium signal, replicate 2 |
| --- | --- | --- | --- | --- | --- |
| ms(2)35Ci (GeneID 49529) | DRSC01460 | 137 | 117 | – | – |
| TwdlC (GeneID 43245) | DRSC14749 | 164 | 126 | – | – |
| Gbp1 (GeneID 36936) | DRSC06592 | 126 | 146 | – | – |
| CG17329 (GeneID 34958) | DRSC01926 | 73 (active) | 90.4 | – | – |
| Snap24 (GeneID 41193) | DRSC16864 | 167 | 101 | – | – |
| CG13022 (GeneID 39896) | DRSC09902 | 94.7 | 132 | – | – |
| dare (GeneID 36203) | DRSC07602 | 124 | 155 | – | – |
| GstE8 (GeneID 37113) | DRSC06678 | 151 | 91 | – | – |
| CG9121 (GeneID 33732) | DRSC03142 | 155 | 108 | – | – |
| Ttc1 (GeneID 41993) | DRSC15016 | 109 | 141 | – | – |
| Ttc1 (GeneID 41993) | DRSC22469 | 141 | 200 | – | – |
| Poxn (GeneID 36741) | DRSC05589 | 71 (active) | 89.5 | – | – |
| Poxn (GeneID 36741) | DRSC07512 | 130 | 108 | – | – |
| CG10359 (GeneID 38434) | DRSC08156 | 99.6 | 138 | – | – |
| Hydr2 (GeneID 33532) | DRSC00607 | 153 | 226 | – | – |
| CG14561 (GeneID 40447) | DRSC11722 | 102 | 113 | – | – |
| Ddrgk1 (GeneID 42516) | DRSC15897 | 162 | 294 | – | – |
| myo (GeneID 43811) | DRSC17174 | 134 | 122 | – | – |
| Cyp6a20 (GeneID 36664) | DRSC07380 | 159 | 101 | – | – |
| Srg2 (GeneID 39179) | DRSC10681 | 91.3 | 98.4 | – | – |
| CG32075 (GeneID 326192) | DRSC10622 | 137 | 126 | – | – |
| Su(fu) (GeneID 41565) | DRSC16871 | 104 | 163 | – | – |
| COX6CL (GeneID 318868) | DRSC00895 | 83.7 | 113 | – | – |
| Ser (GeneID 43275) | DRSC16856 | 158 | 182 | – | – |
| MED24 (GeneID 38914) | DRSC10944 | 94.9 | 82.8 | – | – |
| O-fut1 (GeneID 36564) | DRSC06138 | 181 | 183 | – | – |
| zuc (GeneID 34609) | DRSC02160 | 118 | 122 | – | – |
| Mdr65 (GeneID 38726) | DRSC11220 | 100 | 70.5 | 124 | 121 |
| scrt (GeneID 38469) | DRSC08736 | 73.4 | 94 | – | – |
| scrt (GeneID 38469) | DRSC23001 | 144 | 137 | – | – |
| CG7720 (GeneID 42257) | DRSC16306 | 96 | 182 | – | – |
| CG7720 (GeneID 42257) | DRSC16307 | 73.7 | 120 | – | – |
| san (GeneID 44724) | DRSC07695 | 125 | 151 | – | – |
| LeuRS (GeneID 326262) | DRSC00581 | 194 | 124 | – | – |
| CG1265 (GeneID 38517) | DRSC08288 | 108 | 105 | – | – |
| CG14095 (GeneID 40112) | DRSC10098 | 115 | 205 | – | – |
| r-cup (GeneID 33075) | DRSC20475 | 242 | 107 | – | – |
| CG9641 (GeneID 33502) | DRSC00721 | 183 | 206 | – | – |
| CG15909 (GeneID 35572) | DRSC04977 | 139 | 169 | – | – |
| CG8187 (GeneID 36720) | DRSC07099 | 79.5 (active) | 116 | – | – |
| Ube4B (GeneID 34699) | DRSC03277 | 86.5 | 88.9 | – | – |
| CG13843 (GeneID 42668) | DRSC14693 | 93.5 | 83.6 | – | – |
| CCT4 (GeneID 34674) | DRSC02865 | 122 | 143 | – | – |
